Our source for the binding values is paper PMC9442473, “Centriole growth is limited by the Cdk/Cyclin-dependent phosphorylation of Ana2/STIL” (The Journal of Cell Biology, 2022).

These are yes or no findings as the source states them, for the method shown.

The target of this assay is eAna2(∆CC)-mNG (Drosophila melanogaster) (UniProt Q9XZ31). Briefly: fluorescence correlation spectroscopy (FCS), cytoplasmic diffusion rate; point FCS in the cytoplasm of living syncytial embryos, nuclear cycle 12, 25.0-26.0°C; embryos with one copy of the mNG-tagged transgene and one copy of the untagged WT ana2 gene.

B1: eAna2(∆CC)-mNG (protein, UniProt Q9XZ31)
chain: MFVPETEDMLPRLAPRPSAAVPMGHTNEIIGPTVPEVSILFGQPPQDPQMQPQQPNHAHQESSPRAAPTFASWKKQMLPRVNFSPILATELGPRTAPSSNSPCSSKEYQVMPRDRNYASDAQQTTNHMNCNAGGYNAEPKQQAYQSRRLSSSSNADVLTICAGTQTDPFNPSPPRKSLPQVVYSDIDVSNLANKPEAISKASSTTGTQCDILTTNQAGRRLSPIMQDYIAEEEEPLPPPQARVIPQFPSPRPHPPIAQSTGYRANTPQAKRIPQLAKPNTEKSMVMNELALKYLRQPVDELMKDMRLGASPKSPNPEPLRPIDNIGHAQSPNDISNASYKYLKKYRLLPEEQLEPVCPQSPMAATAPSPHIQLDLENIRNQPKLL
On to B1, for which the binding entry is reported as “no binding”.
